Test results reported in publication PMC9844853.
Results are given in words; binding and its absence hold for the method and conditions named. In cells and extracts the contact can be indirect. A yes stands for co-enrichment or nearness to the bait. Other partners may have been found. For some assays here: A no says only that the protein was not detected with the bait.

Amino acid sequences for entries named in this document (tags omitted).
UniProt P32243: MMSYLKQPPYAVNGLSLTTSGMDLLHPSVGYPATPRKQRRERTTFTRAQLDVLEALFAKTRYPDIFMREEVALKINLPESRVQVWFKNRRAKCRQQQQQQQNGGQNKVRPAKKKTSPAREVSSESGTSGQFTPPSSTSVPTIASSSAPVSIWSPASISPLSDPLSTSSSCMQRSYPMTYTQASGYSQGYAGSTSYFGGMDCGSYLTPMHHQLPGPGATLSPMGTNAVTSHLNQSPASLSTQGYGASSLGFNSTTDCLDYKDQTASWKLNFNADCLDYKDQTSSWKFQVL
UniProt Q969G3: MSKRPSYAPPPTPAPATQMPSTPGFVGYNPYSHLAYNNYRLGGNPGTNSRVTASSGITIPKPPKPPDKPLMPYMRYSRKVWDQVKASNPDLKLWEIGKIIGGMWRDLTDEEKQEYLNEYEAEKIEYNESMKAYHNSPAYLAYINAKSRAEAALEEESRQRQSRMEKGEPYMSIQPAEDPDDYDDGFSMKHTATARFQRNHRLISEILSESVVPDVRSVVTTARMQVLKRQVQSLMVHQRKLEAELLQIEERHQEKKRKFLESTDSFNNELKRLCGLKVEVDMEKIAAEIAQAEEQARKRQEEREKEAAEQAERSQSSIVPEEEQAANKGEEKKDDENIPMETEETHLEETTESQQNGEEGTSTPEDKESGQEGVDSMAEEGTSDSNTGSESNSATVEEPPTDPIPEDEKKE
UniProt Q92925: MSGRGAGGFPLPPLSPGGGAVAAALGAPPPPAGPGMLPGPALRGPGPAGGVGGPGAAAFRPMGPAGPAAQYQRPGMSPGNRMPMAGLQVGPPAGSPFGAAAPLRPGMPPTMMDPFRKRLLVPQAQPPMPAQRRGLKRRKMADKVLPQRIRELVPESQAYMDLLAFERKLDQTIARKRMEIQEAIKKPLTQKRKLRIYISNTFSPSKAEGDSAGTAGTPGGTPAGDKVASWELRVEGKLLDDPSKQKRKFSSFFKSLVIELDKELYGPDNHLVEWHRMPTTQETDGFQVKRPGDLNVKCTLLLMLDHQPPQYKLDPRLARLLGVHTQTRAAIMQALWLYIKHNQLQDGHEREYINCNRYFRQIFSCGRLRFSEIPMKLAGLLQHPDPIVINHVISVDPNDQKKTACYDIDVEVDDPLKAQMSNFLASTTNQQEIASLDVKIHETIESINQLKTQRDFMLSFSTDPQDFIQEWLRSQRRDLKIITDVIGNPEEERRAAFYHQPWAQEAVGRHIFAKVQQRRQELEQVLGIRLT
UniProt Q92922: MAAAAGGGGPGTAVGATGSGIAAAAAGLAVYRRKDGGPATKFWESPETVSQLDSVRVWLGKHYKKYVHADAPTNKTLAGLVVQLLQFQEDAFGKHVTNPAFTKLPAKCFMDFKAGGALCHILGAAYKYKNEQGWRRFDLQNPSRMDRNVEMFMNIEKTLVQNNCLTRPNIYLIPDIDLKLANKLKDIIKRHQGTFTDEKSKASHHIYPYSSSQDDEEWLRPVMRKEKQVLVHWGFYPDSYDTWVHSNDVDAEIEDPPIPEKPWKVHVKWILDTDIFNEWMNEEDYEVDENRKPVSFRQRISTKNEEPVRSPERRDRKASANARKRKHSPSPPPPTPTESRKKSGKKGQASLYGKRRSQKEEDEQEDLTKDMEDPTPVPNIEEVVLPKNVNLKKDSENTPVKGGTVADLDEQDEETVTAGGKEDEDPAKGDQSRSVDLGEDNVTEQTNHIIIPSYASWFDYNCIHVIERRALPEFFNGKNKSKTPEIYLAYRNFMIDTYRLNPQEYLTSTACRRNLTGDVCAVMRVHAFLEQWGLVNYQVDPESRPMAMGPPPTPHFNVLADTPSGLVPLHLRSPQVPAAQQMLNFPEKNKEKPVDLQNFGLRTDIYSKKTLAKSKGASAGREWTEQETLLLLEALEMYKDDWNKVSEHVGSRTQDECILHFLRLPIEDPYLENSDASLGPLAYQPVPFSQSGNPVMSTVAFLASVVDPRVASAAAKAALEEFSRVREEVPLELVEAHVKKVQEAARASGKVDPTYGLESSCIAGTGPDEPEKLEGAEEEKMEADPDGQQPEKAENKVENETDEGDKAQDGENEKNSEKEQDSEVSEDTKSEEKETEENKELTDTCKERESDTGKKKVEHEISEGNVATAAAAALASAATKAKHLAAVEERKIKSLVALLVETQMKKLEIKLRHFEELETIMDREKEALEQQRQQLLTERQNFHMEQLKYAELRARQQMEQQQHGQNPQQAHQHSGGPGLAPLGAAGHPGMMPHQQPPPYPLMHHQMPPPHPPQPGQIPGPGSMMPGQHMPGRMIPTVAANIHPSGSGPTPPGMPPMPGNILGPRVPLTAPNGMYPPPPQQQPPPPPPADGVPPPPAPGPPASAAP
UniProt P51532: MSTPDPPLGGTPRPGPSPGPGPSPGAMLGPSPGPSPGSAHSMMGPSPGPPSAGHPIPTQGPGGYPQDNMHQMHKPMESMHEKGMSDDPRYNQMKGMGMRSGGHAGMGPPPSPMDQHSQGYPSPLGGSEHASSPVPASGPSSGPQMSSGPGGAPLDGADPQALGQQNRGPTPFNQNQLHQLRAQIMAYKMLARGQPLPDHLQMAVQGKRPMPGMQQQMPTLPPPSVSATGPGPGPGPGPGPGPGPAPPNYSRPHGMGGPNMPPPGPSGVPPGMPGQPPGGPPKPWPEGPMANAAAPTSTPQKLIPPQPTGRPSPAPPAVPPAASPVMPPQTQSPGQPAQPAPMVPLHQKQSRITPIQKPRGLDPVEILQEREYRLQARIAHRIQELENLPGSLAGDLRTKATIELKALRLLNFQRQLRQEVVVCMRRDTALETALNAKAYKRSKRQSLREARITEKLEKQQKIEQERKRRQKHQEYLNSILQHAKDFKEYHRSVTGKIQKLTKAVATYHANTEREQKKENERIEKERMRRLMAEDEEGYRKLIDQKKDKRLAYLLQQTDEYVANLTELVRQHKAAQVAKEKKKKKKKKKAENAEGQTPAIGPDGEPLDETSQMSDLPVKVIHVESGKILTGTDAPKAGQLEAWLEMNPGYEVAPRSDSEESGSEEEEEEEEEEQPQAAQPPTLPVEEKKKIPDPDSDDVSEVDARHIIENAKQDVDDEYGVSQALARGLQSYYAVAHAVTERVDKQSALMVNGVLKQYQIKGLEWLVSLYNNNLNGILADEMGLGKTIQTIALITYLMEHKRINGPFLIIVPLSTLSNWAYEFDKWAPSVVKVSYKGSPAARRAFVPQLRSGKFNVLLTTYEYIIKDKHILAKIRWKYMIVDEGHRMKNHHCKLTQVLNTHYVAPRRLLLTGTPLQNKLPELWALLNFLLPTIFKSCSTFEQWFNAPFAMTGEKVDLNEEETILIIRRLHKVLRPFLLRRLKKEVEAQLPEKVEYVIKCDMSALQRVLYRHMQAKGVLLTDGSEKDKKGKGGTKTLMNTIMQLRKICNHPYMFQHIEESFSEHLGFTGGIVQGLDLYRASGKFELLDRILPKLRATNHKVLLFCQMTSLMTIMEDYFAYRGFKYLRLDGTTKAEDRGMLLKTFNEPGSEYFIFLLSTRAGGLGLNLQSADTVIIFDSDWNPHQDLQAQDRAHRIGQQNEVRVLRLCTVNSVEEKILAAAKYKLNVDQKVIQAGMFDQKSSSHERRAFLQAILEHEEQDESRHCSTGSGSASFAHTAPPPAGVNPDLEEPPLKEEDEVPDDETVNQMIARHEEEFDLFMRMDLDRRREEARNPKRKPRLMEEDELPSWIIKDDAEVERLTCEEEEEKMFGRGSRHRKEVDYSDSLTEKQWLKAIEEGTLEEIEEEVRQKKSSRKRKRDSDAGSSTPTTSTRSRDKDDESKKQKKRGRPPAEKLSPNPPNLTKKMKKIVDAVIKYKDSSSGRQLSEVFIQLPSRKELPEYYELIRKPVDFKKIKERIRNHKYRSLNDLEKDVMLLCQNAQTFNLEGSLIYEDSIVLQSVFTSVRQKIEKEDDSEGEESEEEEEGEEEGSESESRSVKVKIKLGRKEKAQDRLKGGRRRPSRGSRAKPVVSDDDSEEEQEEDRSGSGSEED
UniProt P51531: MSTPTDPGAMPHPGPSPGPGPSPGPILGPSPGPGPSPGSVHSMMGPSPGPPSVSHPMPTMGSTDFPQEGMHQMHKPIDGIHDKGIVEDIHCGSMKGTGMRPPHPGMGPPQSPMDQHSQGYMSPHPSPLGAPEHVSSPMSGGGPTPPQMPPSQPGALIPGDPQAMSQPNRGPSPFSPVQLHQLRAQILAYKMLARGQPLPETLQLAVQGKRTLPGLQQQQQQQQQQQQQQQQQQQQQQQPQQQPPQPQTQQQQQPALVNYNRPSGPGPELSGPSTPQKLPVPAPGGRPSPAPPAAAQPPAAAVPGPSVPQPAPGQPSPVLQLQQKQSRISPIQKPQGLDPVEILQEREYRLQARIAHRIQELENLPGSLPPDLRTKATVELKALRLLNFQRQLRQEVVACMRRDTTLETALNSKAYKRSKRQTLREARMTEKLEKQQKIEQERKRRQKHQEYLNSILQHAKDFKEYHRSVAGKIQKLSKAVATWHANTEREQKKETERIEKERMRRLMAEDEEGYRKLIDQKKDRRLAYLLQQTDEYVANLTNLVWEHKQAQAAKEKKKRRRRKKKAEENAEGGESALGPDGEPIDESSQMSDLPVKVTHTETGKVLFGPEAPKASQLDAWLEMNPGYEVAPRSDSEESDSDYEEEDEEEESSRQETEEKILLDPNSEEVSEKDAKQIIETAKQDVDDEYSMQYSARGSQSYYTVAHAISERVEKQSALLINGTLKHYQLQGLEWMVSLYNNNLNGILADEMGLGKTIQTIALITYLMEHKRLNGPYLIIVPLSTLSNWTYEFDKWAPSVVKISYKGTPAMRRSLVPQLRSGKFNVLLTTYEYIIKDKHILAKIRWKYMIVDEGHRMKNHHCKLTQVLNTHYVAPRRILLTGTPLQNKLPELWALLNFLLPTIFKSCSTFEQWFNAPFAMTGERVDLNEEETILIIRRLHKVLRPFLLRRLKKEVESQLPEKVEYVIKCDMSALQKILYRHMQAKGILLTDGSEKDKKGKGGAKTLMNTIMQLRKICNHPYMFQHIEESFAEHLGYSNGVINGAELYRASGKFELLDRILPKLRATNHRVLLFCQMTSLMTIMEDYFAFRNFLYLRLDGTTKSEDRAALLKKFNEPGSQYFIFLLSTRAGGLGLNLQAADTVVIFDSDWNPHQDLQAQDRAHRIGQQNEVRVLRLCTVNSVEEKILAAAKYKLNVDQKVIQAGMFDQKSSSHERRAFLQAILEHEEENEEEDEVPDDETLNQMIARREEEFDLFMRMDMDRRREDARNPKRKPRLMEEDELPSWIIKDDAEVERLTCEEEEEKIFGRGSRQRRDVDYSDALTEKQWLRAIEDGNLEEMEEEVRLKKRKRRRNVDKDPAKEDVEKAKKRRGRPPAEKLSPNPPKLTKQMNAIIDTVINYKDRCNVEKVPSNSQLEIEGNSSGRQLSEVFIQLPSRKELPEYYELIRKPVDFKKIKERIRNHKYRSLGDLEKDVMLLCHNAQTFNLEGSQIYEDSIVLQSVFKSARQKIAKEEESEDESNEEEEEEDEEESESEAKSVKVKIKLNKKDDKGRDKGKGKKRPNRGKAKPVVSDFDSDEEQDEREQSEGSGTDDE
UniProt Q86U70: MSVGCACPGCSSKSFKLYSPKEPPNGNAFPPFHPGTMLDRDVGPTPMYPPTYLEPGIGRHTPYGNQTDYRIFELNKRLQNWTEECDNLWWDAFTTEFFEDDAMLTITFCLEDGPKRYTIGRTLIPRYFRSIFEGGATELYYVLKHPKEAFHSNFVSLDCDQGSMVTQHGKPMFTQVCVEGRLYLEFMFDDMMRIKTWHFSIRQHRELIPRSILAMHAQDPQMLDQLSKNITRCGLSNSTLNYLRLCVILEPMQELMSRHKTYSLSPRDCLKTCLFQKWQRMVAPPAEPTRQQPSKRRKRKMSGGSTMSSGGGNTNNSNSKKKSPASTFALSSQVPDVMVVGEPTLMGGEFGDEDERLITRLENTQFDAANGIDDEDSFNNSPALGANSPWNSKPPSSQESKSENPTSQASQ
UniProt O75030: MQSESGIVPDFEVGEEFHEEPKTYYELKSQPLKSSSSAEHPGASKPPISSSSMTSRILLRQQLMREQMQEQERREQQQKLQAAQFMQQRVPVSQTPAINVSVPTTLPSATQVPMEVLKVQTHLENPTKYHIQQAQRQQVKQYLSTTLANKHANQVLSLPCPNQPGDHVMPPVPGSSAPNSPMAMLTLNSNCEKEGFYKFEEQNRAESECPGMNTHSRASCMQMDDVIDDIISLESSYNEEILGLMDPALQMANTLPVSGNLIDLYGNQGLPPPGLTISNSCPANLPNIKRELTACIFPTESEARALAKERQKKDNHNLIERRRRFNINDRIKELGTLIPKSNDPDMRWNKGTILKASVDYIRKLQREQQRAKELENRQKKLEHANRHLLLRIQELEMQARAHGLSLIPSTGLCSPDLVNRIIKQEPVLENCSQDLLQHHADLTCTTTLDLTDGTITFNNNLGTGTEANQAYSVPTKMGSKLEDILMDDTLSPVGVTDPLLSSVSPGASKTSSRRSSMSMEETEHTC

T1: LHX2 (human (endogenous in hES-RPE)) (UniProt P50458)
T1 sequence: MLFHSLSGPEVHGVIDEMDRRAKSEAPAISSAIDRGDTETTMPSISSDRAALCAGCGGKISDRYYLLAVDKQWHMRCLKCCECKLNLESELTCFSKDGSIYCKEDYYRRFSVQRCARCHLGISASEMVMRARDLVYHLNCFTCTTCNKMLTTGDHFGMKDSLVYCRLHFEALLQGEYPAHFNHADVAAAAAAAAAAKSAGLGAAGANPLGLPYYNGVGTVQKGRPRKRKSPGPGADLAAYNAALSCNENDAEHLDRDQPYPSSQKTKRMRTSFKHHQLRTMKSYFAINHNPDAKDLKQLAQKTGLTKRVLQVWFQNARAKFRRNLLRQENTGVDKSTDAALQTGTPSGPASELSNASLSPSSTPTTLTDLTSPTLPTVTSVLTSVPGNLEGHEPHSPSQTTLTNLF

B1: LDB2 (protein, UniProt O43679 1-373)
chain: MSSTPHDPFYSSPFGPFYRRHTPYMVQPEYRIYEMNKRLQSRTEDSDNLWWDAFATEFFEDDATLTLSFCLEDGPKRYTIGRTLIPRYFSTVFEGGVTDLYYILKHSKESYHNSSITVDCDQCTMVTQHGKPMFTKVCTEGRLILEFTFDDLMRIKTWHFTIRQYRELVPRSILAMHAQDPQVLDQLSKNITRMGLTNFTLNYLRLCVILEPMQELMSRHKTYNLSPRDCLKTCLFQKWQRMVAPPAEPTRQPTTKRRKRKNSTSSTSNSSAGNNANSTGSKKKTTAANLSLSSQVPDVMVVGEPTLMGGEFGDEDERLITRLENTQYDAANGMDDEEDFNNSPALGNNSPWNSKPPATQETKSENPPPQASQ
B2: SSBP2 (single-strand-binding protein 2) (protein, UniProt P81877 1-361)
chain: MYGKGKSNSSAVPSDSQAREKLALYVYEYLLHVGAQKSAQTFLSEIRWEKNITLGEPPGFLHSWWCVFWDLYCAAPERRETCEHSSEAKAFHDYSAAAAPSPVLGNIPPGDGMPVGPVPPGFFQPFMSPRYPGGPRPPLRIPNQALGGVPGSQPLLPSGMDPTRQQGHPNMGGPMQRMTPPRGMVPLGPQNYGGAMRPPLNALGGPGMPGMNMGPGGGRPWPNPTNANSIPYSSASPGNYVGPPGGGGPPGTPIMPSPADSTNSGDNMYTLMNAVPPGPNRPNFPMGPGSDGPMGGLGGMESHHMNGSLGSGDMDSISKNSPNNMSLSNQPGTPRDDGEMGGNFLNPFQSESYSPSMTMSV
B3: LHX2 (protein, UniProt P50458 1-406)
chain: T1 sequence

What follows are molecules tested against OTX2 (human (endogenous in hES-RPE)) (UniProt P32243) (assay: affinity purification with mass spectrometry; endogenous OTX2 or LHX2 immuno-purified with rabbit anti-OTX2 or anti-Lhx2/LH2 antibody and protein-A agarose from benzonase-treated nuclear lysate of hES-RPE (150 mM NaCl, 50 mM Tris pH 7.5, 1% NP40), overnight 4°C; compared to control IgG; 3 repeats; label-free LC-MS-MS).

Molecule | binding
BAF57 (SMARCE1) (from UniProt Q969G3 1-411) | binds
BAF60a (SMARCD1) (from UniProt Q96GM5 1-515) | binds
BAF60b (SMARCD2) (from UniProt Q92925 1-531) | binds
BAF155 (SMARCC1) (from UniProt Q92922 1-1105) | binds
BAF170 (SMARCC2) (from UniProt Q8TAQ2 1-1214) | binds
BRG1 (SMARCA4) (from UniProt P51532 1-1647) | binds
BRM (SMARCA2) (from UniProt P51531 1-1590) | binds
LDB1 (from UniProt Q86U70 1-411) | binds
MITF (microphthalmia-associated TF) (from UniProt O75030 1-526) | binds
B1 | binds
B2 | binds
B3 | no binding

These molecules were tested against T1, LHX2 (human (endogenous in hES-RPE)) in the same assay as above.

Molecule | binding
LDB1 (from UniProt Q86U70 1-411) | binds
OTX2 (from UniProt P32243 1-289) | no binding
B1 | binds
B2 | binds

These molecules were tested against BRG1 (SMARCA4) (human (endogenous in hES-RPE)) (UniProt P51532) (assay: affinity purification with mass spectrometry; BRG1 pulldown (IP-MS) from hES-RPE compared to nonspecific IgG; the methods do not describe this IP).

Molecule | binding
OTX2 (from UniProt P32243 1-289) | binds
